Assay results taken from the supplement of paper PMC3334620.
In all, about 33,000 sequences were measured (“E-score (-0.5 to 0.5)”: median about -0.015, highest 2% from about 0.3 on). Some of the results follow.

Target: T1, Abf1 (UniProt P14164)
T1 sequence: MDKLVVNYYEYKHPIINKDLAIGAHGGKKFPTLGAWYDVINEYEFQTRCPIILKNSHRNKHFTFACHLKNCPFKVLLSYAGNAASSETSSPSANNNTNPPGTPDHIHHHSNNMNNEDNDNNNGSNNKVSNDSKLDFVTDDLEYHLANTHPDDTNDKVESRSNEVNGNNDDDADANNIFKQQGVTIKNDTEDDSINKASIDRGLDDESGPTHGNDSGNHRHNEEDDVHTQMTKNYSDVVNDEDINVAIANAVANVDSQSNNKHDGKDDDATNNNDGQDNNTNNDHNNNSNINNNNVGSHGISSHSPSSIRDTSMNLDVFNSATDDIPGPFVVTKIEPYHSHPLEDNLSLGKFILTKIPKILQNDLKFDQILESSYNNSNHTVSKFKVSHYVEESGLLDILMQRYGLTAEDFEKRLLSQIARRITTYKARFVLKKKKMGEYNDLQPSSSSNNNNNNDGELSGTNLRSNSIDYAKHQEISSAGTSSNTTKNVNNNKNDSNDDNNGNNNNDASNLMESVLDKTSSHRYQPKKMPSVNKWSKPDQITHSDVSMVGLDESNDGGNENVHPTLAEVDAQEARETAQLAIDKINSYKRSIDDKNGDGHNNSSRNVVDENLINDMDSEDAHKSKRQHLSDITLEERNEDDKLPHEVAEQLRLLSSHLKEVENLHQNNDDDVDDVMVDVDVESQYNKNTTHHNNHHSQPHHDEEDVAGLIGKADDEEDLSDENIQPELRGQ
Assay: PBM E-score (8-mer binding enrichment) (E-score (-0.5 to 0.5)); higher = stronger / more preferred TF binding
Details: protein concentration: 200 nM; construct: GST-full length
Outline: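 Yeast transcription factors carrying a GST tag, as full-length proteins or DNA-binding domains, were produced by PURExpress in vitro transcription/translation. About 100-200 nM protein was applied to universal all-10-mer Agilent arrays, double-stranded by primer extension on fresh or once-stripped slides. Bound protein was detected with fluorescent anti-GST, and scans were normalised with masliner. The Universal PBM Analysis Suite gave each ungapped eight-base word, pooled with its reverse complement, an E-score, a modified Wilcoxon-Mann-Whitney statistic.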

Point of comparison: GGACCCCA, “PBM E-score” value -0.188. Against it:
- AACTAGAG — higher, -0.159
- AGACACGA — higher, 0.083
- CGCACACC — lower, -0.197
- ACGGCTTA — higher, 0.111
- AGGGGAGG — higher, -0.133
- ATCCACAT — higher, 0.218
- AAACAGTG — higher, 0.0856
- CGCGGTGC — higher, 0.0204
- AGCGTCCA — higher, -0.0104
- AATATTTG — higher, 0.13
- CTTCCTGA — higher, 0.0112
- CAACTTCG — higher, -0.025
- ACCCGACA — higher, -0.026
- CCTATATA — higher, 0.0431
- CGATTGAC — higher, 0.192
- ATACGGGA — higher, 0.253
- AGACTCCG — higher, -0.134
- CAAGCTAA — higher, -0.17
- ACGCCAGA — higher, -0.081
- CGGTTGAC — higher, 0.0615
- AGATTCTG — higher, -0.0764
- CATATCAG — higher, 0.0515
- GATTGCGA — higher, 0.011
- CTGCTAGA — higher, 0.0103
- CAGACCCA — lower, -0.195
- CGTAAAGA — higher, 0.0591
- CCCGGCCG — higher, -0.11
- GCGTCCTA — higher, -0.0099
- AATACTGG — higher, -0.0655
- CCCAGCAC — higher, -0.127
- GGGTACCC — higher, -0.0568
- CAAAGCCA — higher, -0.0956
- CATACATC — higher, 0.184
- CCCGCTAA — lower, -0.211
- GAGGAAAC — higher, -0.115
- CAGTGGGG — lower, -0.317
- ACCAGGCC — higher, -0.00672
- TAAATCGA — higher, 0.14
- ATCGAGTC — higher, 0.0688
- CTGCTGTC — higher, -0.149
- AACAGATA — higher, 0.0193
- ACCTATAA — higher, -0.0738
- GACTTACA — higher, -0.0928
- CACTAGTA — higher, 0.125
- GCGGTGCC — higher, -0.156
- GATGCCTA — higher, 0.0188
- AGTTTCGC — higher, -0.0187
- ACCTTAAC — higher, 0.136
- GGTGTATA — higher, -0.174
- GATGCCAC — higher, 0.049
- ACCAGCCC — lower, -0.296
- ATTAAGAG — higher, -0.0703
- AACCGTCC — higher, -0.0986
- CCGAAGCA — higher, -0.0818
- CAACATTG — higher, -0.0544
- AGCGCGGG — higher, -0.0308
- ATCCGACA — higher, 0.00862
- CACCACAC — higher, -0.143
- CGTGACAG — higher, 0.319
- AGACGATG — higher, 0.209
- GACTTTCC — higher, 0.0853
- CATGTAGA — higher, 0.0119
- GCTGGATA — higher, -0.0412
- ATCTGCAC — higher, -0.055
- ACCGCAGC — higher, -0.15
- GTTTAAGA — higher, -0.0159
- ACGCAGAA — higher, -0.00375
- ACAATTGA — higher, 0.0692
- CCCGCTCG — higher, -0.0943
- CTCTCAGC — lower, -0.234
- AGTTTGAA — higher, 0.13
- CCACGGGC — higher, -0.0202
- ATACCAGG — higher, 0.0348
- AGATTAAC — higher, 0.0782
- CATCGATG — higher, -0.0454
- AAGCCAAG — lower, -0.249
- ATAGTACG — higher, 0.0658
- ATTGGACA — higher, -0.00916
- CAATGATC — higher, 0.31
- GGGCTACC — higher, -0.186
- CTGCGACA — higher, 0.0333
- CACACGGA — higher, 0.0992
- CCTTACCG — higher, -0.0769
- ATATTGTA — higher, 0.132
- AGCATGCA — higher, -0.00312
- AGACACCT — higher, -0.0571
- CACTAATA — higher, 0.255
- CTCAAGAG — lower, -0.285
- AGCTCTAA — lower, -0.231
- GTATTGTA — higher, 0.164
- TAGGATGA — higher, 0.203
- ATAGTTAG — higher, 0.0345
- ATGTAGAC — higher, -0.0712
- CACCTCCA — higher, 0.0444
- CACGTGCG — higher, 0.075
- ATTAGCCG — higher, 0.0297
- CTTGTTGC — higher, -0.0759
- TAACAACA — higher, 0.0694
- ACCATAGC — lower, -0.225
- AAAAGCAC — higher, 0.0108
- ACACGTTA — higher, -0.0514
- AAAAATTC — higher, 0.147
- CGTATGAC — higher, 0.334
- CATGGGTA — higher, -0.0994
- ATAATCAG — higher, 0.0922
- GAGGACCC — higher, -0.0707
- GATGAAGC — higher, -0.0901
- GGCTCGAA — higher, -0.136
- TCTACCCA — higher, 0.0157
- GTCTGGTA — higher, -0.0271
- AAATTTGC — higher, -0.0527
- AAATACTA — higher, 0.0544
- ATTGACAA — higher, 0.0759
- TATACCGA — higher, 0.118
- CCAGCAAA — higher, 0.0385
- AAGCCTGC — higher, -0.165
- CACGTAAG — higher, -0.0131
- CCGCTGTC — higher, -0.034
- ACATTGTC — higher, 0.242
- AAACCCAC — higher, -0.0255
- CGAGTCCC — lower, -0.197
- CAATAGGG — higher, -0.138
- ACCTAGCG — higher, 0.0668
- AGGGGCGG — lower, -0.284
- ATAGCTGG — higher, -0.0686
- CGATGAAA — higher, 0.0986
- AGTAAACG — higher, -0.0721
- AGATGCCT — higher, -0.0335
- CAAATCAC — higher, 0.19
- CATATGGG — higher, -0.0673
- GCCGTCCC — higher, 0.0981
- CCGATTAA — higher, 0.0259
- CCTCGGAC — higher, 0.0883
- ACTCGACG — higher, 0.146
- GCCTCCGC — higher, -0.157
- GTCGCACA — higher, 0.0377
- GCGCCAAA — higher, -0.0122
- CATTGTCC — higher, -0.0554
- ACATCGTC — higher, 0.265
- AATACTTC — higher, -0.0521
- CGTAACCC — higher, -0.0596
- GAGAGGTA — higher, -0.176
- CAACTTTC — higher, 0.0128
- CGGTGCAG — lower, -0.217
- ACCTCTAC — higher, -0.054
- GTTAACAA — higher, 0.0224
- CTCTTTGC — higher, -0.061
- AACAGTTC — higher, 0.00428
- GAAGAGAA — higher, -0.122
- ATAGGAGC — higher, -0.122
- AATTTCGA — higher, 0.00012
- TATCTGAA — higher, -0.101
- CTCGACCC — higher, -0.092
- AAGACGGA — higher, 0.0735
- AAAAACCG — higher, -0.0664
- TGCAGGAA — higher, -0.0683
- CCTAATTC — higher, -0.0596
- ATAGGCTA — higher, -0.0067
- CTAGACAC — higher, -0.143
- GTAGATTA — higher, 0.201
- TATTGGCA — higher, -0.0397
- CACTAGGA — higher, -0.075
- AAGCACTA — higher, -0.0415
- AACTACGA — higher, 0.134
- TCGCCCCA — lower, -0.236
- GCTCCTTA — higher, -0.0155
- CCCGAGCC — lower, -0.299
- CTAACACA — higher, 0.113
- CCACTACC — higher, -0.14
- CCTCCGAC — higher, -0.0947
- GGAGCGCC — lower, -0.193
- CTATTATA — higher, 0.106
- ATGTTAGA — higher, -0.125
- AACAGGAA — higher, -0.103
- CCCAAATC — higher, -0.0954
- CCAGTCCA — lower, -0.264
- CATCTGTC — higher, -0.101
- GTTTTAGA — higher, -0.0262
- CCTAAAGG — higher, -0.0747
- AGCTGCAG — higher, -0.0291
- ATCACTCG — higher, 0.31
- CCAGGATC — higher, -0.0256
- AGCAGGTC — higher, -0.0558
- AGACTGCA — lower, -0.203
- ATACTGAG — higher, 0.0553
- CATGTCAC — higher, 0.383
- TCCCCCGA — higher, -0.14
- AAAGGTAC — higher, -0.0107
- AATCGATG — higher, 0.206
- CCAAAATA — higher, 0.0483
- ATGCGAAG — higher, 0.0583
- CCAGGAGG — higher, -0.0751
- CAGGCCAG — higher, -0.0334
- GATGGTTA — higher, 0.0953
- CAGACAAG — higher, -0.162
- AAATCGAA — higher, -0.15
- ATCCGAGG — higher, -0.111
- AGGTTGCA — higher, 0.0718
- ATTAGAAG — higher, -0.098
- CAACAGAA — higher, -0.152
- AAAGGGAA — higher, -0.0729
- CTAAATGC — higher, 0.0632
- GGGGGAAA — lower, -0.367
- CGGGGTTC — higher, -0.126
- CAAATACG — higher, 0.164
- AACGAATG — higher, 0.188
- CAGTATAC — higher, 0.159
- GAAAATAC — higher, 0.0265
- CGCCGAGC — higher, -0.0933
- CCTTGTGC — higher, -0.164
- GAGGTTAC — higher, 0.0322
- CGTAGACA — higher, 0.00659
- TGCCCCAA — higher, 0.0225
- ATTCAGCA — higher, 0.0365
- GGAGCCCC — lower, -0.293
- CAAAGAGC — higher, -0.0636
- CTTTTCAA — higher, 0.166
- CTGGTGGA — higher, -0.0901
